Data taken from ChEMBL document CHEMBL3988442, “University of Dundee, Small-Polar-MMV Screening Library” (2021).

By UniProt entry, the sequences of proteins in these tests, tags left out.
UniProt E9BF75, entry or part of it: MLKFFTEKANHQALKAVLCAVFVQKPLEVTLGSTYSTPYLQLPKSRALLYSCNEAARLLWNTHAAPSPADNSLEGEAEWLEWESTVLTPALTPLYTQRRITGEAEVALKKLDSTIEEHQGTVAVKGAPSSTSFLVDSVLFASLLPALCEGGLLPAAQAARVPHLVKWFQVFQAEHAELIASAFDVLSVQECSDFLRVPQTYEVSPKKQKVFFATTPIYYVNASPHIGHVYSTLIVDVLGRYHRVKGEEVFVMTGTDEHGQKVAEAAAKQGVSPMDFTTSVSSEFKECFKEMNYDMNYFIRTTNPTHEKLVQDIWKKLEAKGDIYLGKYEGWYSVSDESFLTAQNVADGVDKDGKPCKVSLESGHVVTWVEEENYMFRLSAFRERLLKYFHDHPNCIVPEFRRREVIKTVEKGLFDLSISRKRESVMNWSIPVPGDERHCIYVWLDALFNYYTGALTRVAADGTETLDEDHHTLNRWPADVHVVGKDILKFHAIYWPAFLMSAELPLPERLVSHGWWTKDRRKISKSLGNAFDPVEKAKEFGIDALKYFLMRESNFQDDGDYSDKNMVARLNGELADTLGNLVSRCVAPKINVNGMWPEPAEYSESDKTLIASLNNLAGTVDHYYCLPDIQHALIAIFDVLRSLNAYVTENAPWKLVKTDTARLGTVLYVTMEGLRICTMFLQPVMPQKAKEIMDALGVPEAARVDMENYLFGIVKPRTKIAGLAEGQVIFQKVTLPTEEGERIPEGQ

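Methionyl-tRNA synthetase (putative), Leishmania donovani (UniProt E9BF75). Primary screen of methionyl-tRNA synthetase; the read-out is not stated. The test concentration is not given. Values are per cent inhibition. Size under these conditions: about 68,000 compounds, about 24 of them at 50% or above in at least one test.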

All values are in %.
How 0% and 100% were set is not recorded. Most values in the screen are low, and negative values occur.
Compounds were drawn at random from those tested, without regard to their results.

- O=C(Nc1ccc(Cl)cn1)c1cncc(C2CCNCC2)n1 | 5.774%
- Cc1csc(CNC(=O)NCC(O)c2ccc(F)cc2F)n1 (centres unmarked) | -4.891%
- Cc1cnn(CC2CCCN2C(=O)CCc2nc3ccccc3[nH]2)c1 (centres unmarked) | 4.225%
- O=C(Cc1noc2ccccc12)N1CCC(Nc2cccnn2)CC1 | 10.74%
- c1ccc2oc(NC3CCCN(Cc4noc(C5CC5)n4)C3)nc2c1 (centres unmarked) | 13.41%
- O=C(CCc1ccsc1)N1CCCC(n2cncn2)C1 (centres unmarked) | 11.67%
- O=C(N[C@@H]1CCC[C@@H](N2CCOCC2)[C@@H]1O)c1cc2ccccc2[nH]1 | 9.646%
- CC(NCCCc1cnn(C)c1)c1ccc(Br)s1 (centres unmarked) | 14.64%
- O=C(CN(Cc1cccs1)C1CCS(=O)(=O)C1)NCC1CCCCC1 (centres unmarked) | 17.54%
- NCc1cc(-c2ccccc2)n2nccc2n1 | 13.83%
- Cc1cc(CN2CCN(S(=O)(=O)c3c(C)c(Cl)cc(C)c3Cl)CC2)on1 | 19.81%
- O=C(c1ccc2cc[nH]c2c1)N1CCC(Nc2cccnn2)CC1 | 11.68%
- O=C1CN(C(=O)[C@H]2CC[C@]3(CC2)CNC(=O)c2ccccc2O3)CCN1 | 19.35%
- CN(C)CCN(C)C(=O)NC1CCC(Oc2ccccc2C#N)CC1 (centres unmarked) | -4.381%
- Cc1noc(C)c1-c1cccc(C2CCCNC2)n1 (centres unmarked) | 9.677%
- Cc1noc(C)c1CN1Cc2cnn(C)c2C(COCC2CC2)C1 (centres unmarked) | 17.46%
- Cc1nn(CC(=O)N2CCN(Cc3cnn(C)c3C)CC2)cc1Br | -2.151%
- CCn1nc2c(cc1=O)CN(Cc1nc(-c3ccccn3)no1)CC2 | 3.681%
- Cc1ccc(C)c(C(NC(=O)C2CC2)c2cccnc2)c1 (centres unmarked) | 9.804%
- CC(c1nc(C2CC2)no1)N1CCN(Cc2ccsc2)CC1 (centres unmarked) | 11.66%
- CC(C)(CN1CCC(Cc2cccc(C(=O)O)c2)C1)N1CCOCC1 (centres unmarked) | 3.47%
- CC[C@@H]1N(C)CCC[C@]12CCC(=O)N2Cc1ccncc1 | 12.32%
- CN(CCc1ccc2c(c1)CCO2)C1CCS(=O)(=O)CC1 | 0.2841%
- CO[C@H]1C[C@@H]2CN(C(=O)c3cc4ccc(F)cc4[nH]3)C[C@@H]2C1 | 13.35%
- Cc1nc(-c2c(C)noc2C)cc(C2CCN(S(=O)(=O)N(C)C)CC2)n1 | 9.346%
- COc1ccc(C(=O)NS(=O)(=O)c2cncc(Br)c2)cc1 | 9.137%
- CC(C)Nc1cc(-c2c[nH]nc2C2CCN(C(=O)C3CCC3)C2)ccn1 (centres unmarked) | 22.19%
- COc1cc(Cl)cc(CN2CCCC(N3CCCC3)C2)c1OC (centres unmarked) | 27.3%
- O=C(CC1COCCN1)NCCc1nc(Cc2ccccc2)no1 (centres unmarked) | -4.11%
- CC(C)(C)CCCC(=O)NS(=O)(=O)CC1CC1 | 13.17%
- CC(=O)N1CCCC1c1nccnc1Nc1cccc(C)n1 (centres unmarked) | 8.711%
- NC(=O)C1CCCN(Cc2ccc(C(=O)Nc3cnns3)cc2)C1 (centres unmarked) | 15.87%
- COc1ccc(C)cc1CN(C)CC(=O)NC1(C)CCS(=O)(=O)C1 (centres unmarked) | 13.58%
- Cc1nc(CN2CCCC3(CCN(c4cnn(C)c4)C3=O)C2)cs1 (centres unmarked) | 15.62%
- N#Cc1ccc(N2CCCN(CC(=O)N3CCNC(=O)C3)CC2)cc1 | 15.19%
- CCc1c(C)nn(CCN2CC3(CCOC3)CCC2=O)c1C (centres unmarked) | 19.76%
- c1ccc(CCNC2CCc3ncnn3C2)nc1 (centres unmarked) | 3.136%
- Cc1nc(N2CCCC2)nc2c1CCN(C(=O)C1CCCCC1)CC2 | 19.31%
- Cc1cccc(N2CCCC3(C2)CN(S(C)(=O)=O)CCO3)c1 (centres unmarked) | -5.263%
- CCc1cc(-c2cc[nH]n2)nc(N2CCCC2)n1 | 13.56%
- CC(c1ccncc1)N(CCN(C)C)C(=O)Nc1ccc(Cl)cc1 (centres unmarked) | 11.66%
- COc1cccc(OCCN2CC[C@@](O)(C3CCOCC3)[C@H](C)C2)c1 | 8.883%
- O=C(Cc1cn2ccsc2n1)N1CCOCC(O)(CN2CCCC2)C1 (centres unmarked) | 8.791%
- O=C(O)CSc1nnc(-c2cn[nH]c2)n1-c1ccccc1C(F)(F)F | 9.804%
- Cn1ccnc1CN1CC[C@@H]2[C@@H](CCC(=O)N2CCc2c[nH]cn2)C1 | 14.18%
- Cc1cnc(Nc2nccnc2C2CCN(C)CC2)s1 | 12.2%

5 of the entries, repeated:

With CC(C)Nc1cc(-c2c[nH]nc2C2CCN(C(=O)C3CCC3)C2)ccn1 (centres unmarked) the screen gave 22.19%.
With CC(C)(C)CCCC(=O)NS(=O)(=O)CC1CC1 the screen gave 13.17%.
With CCn1nc2c(cc1=O)CN(Cc1nc(-c3ccccn3)no1)CC2 the screen gave 3.681%.
With Cc1nc(CN2CCCC3(CCN(c4cnn(C)c4)C3=O)C2)cs1 (centres unmarked) the screen gave 15.62%.
With Cc1cnn(CC2CCCN2C(=O)CCc2nc3ccccc3[nH]2)c1 (centres unmarked) the screen gave 4.225%.